Data: article PMC6114082, “Synthesis of aminophenylhydroxamate and aminobenzylhydroxamate derivatives and in vitro screening for antiparasitic and histone deacetylase inhibitory activity” (International Journal for Parasitology: Drugs and Drug …, 2018)

System: T. gondii deacetylase activity (total protein extract)
Experiment: Deacetylase activity of total protein extract of T. gondii tachyzoites
Assay type: biochemical, Toxoplasma gondii
Conditions: 0.125 μM
Experimental: The HDACi effect against HeLa nuclear extracts and recombinant proteins were measured using a fluorometric HDAC assay kit (Active Motif, Belgium) according to the manufacturer's instructions. Briefly, 30 μL of HeLa nuclear extract (Active Motif, Belgium) or various HDAC recombinant proteins (Active Motif, Belgium) was mixed with 5 μL of a 10 × compound and 10 μL of assay buffer. A negative control containing trichostatin A at a final concentration of 2 μM was analyzed for each independent experiment. A fluorogenic substrate (10 μL) was added, and the reaction was allowed to proceed for 30 min at room temperature and then stopped by the addition of a developer containing trichostatin A. The fluorescence was monitored after 30 min at excitation and emission wavelengths of 360 and 460 nm, respectively.
HDAC activity was determined from total protein extracted from T. gondii. […]

## O=C(CCCCCCC(=O)Nc1ccccc1)NO [SAHA, vorinostat, reference compound]
  inhibition of T. gondii deacetylase activity: 22%
